Experimental data as given in paper PMC11316058.
Results are given in words; binding and its absence hold for the method and conditions named. In cells and extracts the contact can be indirect.

By UniProt entry, the sequences of proteins in these tests, tags left out. Where a name states a change or a piece, a line headed by the entry shows the natural chain unless it says otherwise. Chains listed by the source or under a name are the forms on record and can include a tag or linker. Residues count along the entry.
UniProt O95433: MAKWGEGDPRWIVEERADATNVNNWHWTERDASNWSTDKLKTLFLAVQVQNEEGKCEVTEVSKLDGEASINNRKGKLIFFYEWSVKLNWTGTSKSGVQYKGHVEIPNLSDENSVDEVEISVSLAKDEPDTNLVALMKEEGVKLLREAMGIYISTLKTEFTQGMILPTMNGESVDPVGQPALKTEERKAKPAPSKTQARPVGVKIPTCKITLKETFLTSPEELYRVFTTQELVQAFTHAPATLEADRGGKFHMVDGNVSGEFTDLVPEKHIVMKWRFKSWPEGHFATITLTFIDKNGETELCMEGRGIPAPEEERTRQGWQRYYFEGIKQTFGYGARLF
Ahsa1^Δ20 with a C-terminal myc tag: residues 21-338 of O95433
Ahsa1^Δ27 with a C-terminal myc tag: residues 28-338 of O95433
UniProt P04150: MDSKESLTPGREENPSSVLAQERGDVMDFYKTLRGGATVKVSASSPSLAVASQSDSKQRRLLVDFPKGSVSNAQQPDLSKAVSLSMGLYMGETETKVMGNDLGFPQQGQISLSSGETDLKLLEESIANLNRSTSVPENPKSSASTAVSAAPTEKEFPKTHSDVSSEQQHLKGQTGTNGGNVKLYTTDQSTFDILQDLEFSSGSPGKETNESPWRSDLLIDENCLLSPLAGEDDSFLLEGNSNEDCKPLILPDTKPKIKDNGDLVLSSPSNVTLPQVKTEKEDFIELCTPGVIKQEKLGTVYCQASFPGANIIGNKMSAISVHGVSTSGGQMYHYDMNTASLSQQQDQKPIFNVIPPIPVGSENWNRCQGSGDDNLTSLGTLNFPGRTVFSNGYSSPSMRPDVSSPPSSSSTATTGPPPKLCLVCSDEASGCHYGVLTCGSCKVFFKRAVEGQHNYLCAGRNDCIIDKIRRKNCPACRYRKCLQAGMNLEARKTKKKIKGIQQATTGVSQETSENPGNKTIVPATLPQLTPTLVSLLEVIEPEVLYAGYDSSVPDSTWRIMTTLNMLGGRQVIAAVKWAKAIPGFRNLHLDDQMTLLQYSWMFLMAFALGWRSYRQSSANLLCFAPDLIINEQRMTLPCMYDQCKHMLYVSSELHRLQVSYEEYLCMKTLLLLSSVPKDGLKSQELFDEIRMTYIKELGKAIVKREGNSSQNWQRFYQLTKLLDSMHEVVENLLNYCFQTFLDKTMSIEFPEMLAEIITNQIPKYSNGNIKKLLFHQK

Assays:
Test in all cases: co-IP; MDA-MB-231 cells transiently transfected with myc-tagged Ahsa1 constructs; lysates (50 mM HEPES pH 7.4, 100 mM potassium acetate, 5 mM MgCl2, 20 mM sodium molybdate, 1% TX-100, 20% glycerol) incubated with anti-c-Myc magnetic beads at 4 °C; blots for endogenous Hsp90 and glucocorticoid receptor
[1] = molecular target: Ahsa1^E67K with a C-terminal myc tag (human) (UniProt O95433)
[2] = molecular target: Ahsa1^Δ20 with a C-terminal myc tag (human) (UniProt O95433)
[3] = molecular target: Ahsa1^Δ27 with a C-terminal myc tag (human) (UniProt O95433)

Measured: binding

glucocorticoid hormone receptor (endogenous, MDA-MB-231 cells) (from UniProt P04150 1-777)
no binding: all assays above
